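Assay of Toxoplasma gondii numbers, read through their beta-galactosidase reporter with a colour substrate. Tested at 50 µM. Higher reads as fewer parasites (inferred from which compounds were picked for retests). Of about 18,000 compounds tested this way, about 170 (0.94%) reached 50% or more in at least one test.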

Each number is a percent effect as filed.
How 0% and 100% were set is not recorded. Most values in the screen are low, and negative values occur.
The compounds are a random part of those screened.

For N#CC(C#N)c1ccccn1 the result was 16.07%.
For CSCC(CCO)NC(=O)c1cc(Br)c[nH]1 (stereo not shown) the result was 11.18%.
For COC(=O)[C@@H]1C[C@H](O)CN1S(=O)(=O)CC1CCCCC1 the result was 4.104%.
For Cc1ccc(C2CNCCO2)c(C)c1 (stereo not shown) the result was -5.708%.
For CS(=O)(=O)NCCCNC(=O)c1cn2ccccc2n1 the result was -0.3543%.
For Cc1ccc(C2CCCCN2)o1 (stereo not shown) the result was 5.989%.
For CO[C@H]1CNCC1NC(=O)Cc1nc(C)sc1C (stereo partly shown) the result was -4.139%.
For CO[C@@H]1CN[C@@H](C(=O)NCCCc2cccc(F)c2)C1 the result was -1.374%.
For CC1(C(=O)NCC2CCCCC2)CCCCC(=O)N1 (stereo not shown) the result was -3.408%.
For CC(N)Cc1cccnc1 (stereo not shown) the result was -5.417%.
For CC(NC(=O)CSc1nnnn1C1CC1)c1cccs1 (stereo not shown) the result was 2.661%.
For CC(C)(C)[S+]([O-])CCNC(=O)Cc1ccco1 (stereo not shown) the result was 15.32%.
For COCCNC(=O)COc1cc(Cl)ccc1C(=O)OC the result was 5.87%.
For CC[C@H](N)C(=O)N(Cc1cccc(F)c1)C1CC1 the result was 1.959%.
For Cc1ccc(C(C)C(=O)NCCS(N)(=O)=O)s1 (stereo not shown) the result was 1.289%.
For C1=C(CCNc2ncccn2)CCOC1 the result was -3.466%.
For COC(=O)N1CCCC(NC2CCOCC2)C1 (stereo not shown) the result was 3.715%.
For CN(C)C(=O)CSc1ncccc1C#N the result was -1.929%.
For CNc1snc(C)c1C(=O)Nc1ncccc1O the result was 0.3624%.
For CC1CNCCN1C1CCN(C)CC1 (stereo not shown) the result was -8.633%.
For Cn1cc(-c2csc(N)n2)cn1 the result was 7.314%.
For CCc1ncc(CN(C)c2ncccc2S(N)(=O)=O)s1 the result was -8.373%.
For OCc1c(Cl)ccc2cccnc12 the result was 28.65%.
For COc1cc(Br)ccc1CCCNC(=O)c1c[nH]nn1 the result was 2.403%.
For CCNS(=O)(=O)c1ccc(OC)c(N2CCCC2=O)c1 the result was -4.833%.
For CC(=O)NCC1CCN(Cc2ccccc2)C1 (stereo not shown) the result was -12.31%.
For Cc1cc(N2CCCC(N)C2)ncn1 (stereo not shown) the result was -11.24%.
For CCC(C)(CCO)NC(=O)c1[nH]nc2c1CCCC2 (stereo not shown) the result was 16.36%.
For CC(CC(=O)NCCc1n[nH]c(N)n1)c1ccccc1 (stereo not shown) the result was 16.4%.
For CNCc1nncn1-c1ccccc1Cl the result was -3.538%.
For CSc1ccccc1C(=O)NCCN(C)C the result was -8.487%.
For CN(Cc1ccsc1)S(=O)(=O)c1ccc(C(N)=O)cc1 the result was -2.617%.
For Cc1cc(NC(=O)C2CCN(S(C)(=O)=O)CC2)n(C)n1 the result was -3.952%.
For NC(=O)CC1CCCN1 (stereo not shown) the result was 1.431%.
For CCN1CCN(CCOc2cccc(C(C)=O)c2)CC1 the result was 10.45%.
For CCOCC(O)CN(C)Cc1cccc(C(N)=O)c1 (stereo not shown) the result was -13.39%.
For COc1ccc(NC(=O)N2CCN(C)CC2)cn1 the result was -25.64%.
For O=C(COC(=O)c1ccc2ccccc2n1)NC1CC1 the result was -10.58%.
For CCCn1cc(CN2CCC(S(=O)(=O)NCC)C2)cn1 (stereo not shown) the result was -14.39%.
For Cc1cc(CN2CCN(C(=O)N(C)C)CC2)on1 the result was -4.506%.
For Cc1cccc(C(=O)Nc2ccc(Cl)c(C(N)=O)c2)n1 the result was -6.674%.
For CCOc1cccc(CNCCO)c1 the result was 16.48%.
For O=C(CSc1cnn[nH]1)Nc1ccc(Cl)cn1 the result was -53.1%.
For CSc1ncc(C(=O)NC2CCN(C)C2)cn1 (stereo not shown) the result was 14.64%.
For Cc1ccc(SCC(=O)N2CCCC2C(N)=O)cc1 (stereo not shown) the result was -15.14%.
For CCCN(CC(=O)OC)S(=O)(=O)CCCC#N the result was 39.71%.
For N#CC1(NC(=O)CCc2ccc(Cl)s2)CCOCC1 the result was -22.51%.

For reference, 4 entries once more:

| SMILES | percent effect |
|---|---|
| `CCOCC(O)CN(C)Cc1cccc(C(N)=O)c1` (stereo not shown) | -13.39 |
| `O=C(CSc1cnn[nH]1)Nc1ccc(Cl)cn1` | -53.1 |
| `Cc1cc(CN2CCN(C(=O)N(C)C)CC2)on1` | -4.506 |
| `COC(=O)[C@@H]1C[C@H](O)CN1S(=O)(=O)CC1CCCCC1` | 4.104 |

Data taken from ChEMBL document CHEMBL3988442, “University of Dundee, Small-Polar-MMV Screening Library” (2021).